# Percent effect of library compounds

Measurements from “University of Dundee, Small-Polar-MMV Screening Library” (2021), ChEMBL document CHEMBL3988442.

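Growth of Mycobacterium tuberculosis over 4 days (cholesterol / DPPC medium with tyloxapol); the read-out is not stated. Compounds at 500 µM. Direction is inferred from retests: higher values go with more growth inhibition. About 18,000 compounds were tested under these conditions; 5% (about 900) showed 50% or more at least once.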

The filed quantity is “Percent Effect” (%).
How 0% and 100% were set is not recorded. Most values in the screen are low, and negative values occur.
This is an unselected part of the compounds tested.

compound,effect
CCN1CCC(NC(=O)Nc2ccccc2)CC1,-23.33%
CNC(=O)C1CN(c2ccc(F)cn2)CCO1 (stereo not given),4.61%
CN(CC(=O)NCc1cccs1)Cc1cc[nH]n1,7.191%
CN(C)C(=O)CSCC(=O)NCc1ccc(Cl)cc1,44.93%
CCn1nc(C(C)C)cc1C(=O)N1CCSCC1,-4.325%
COc1ccc2c(c1)CCCC(=O)N2,6.077%
COc1ccc(-c2ccc(CNS(N)(=O)=O)s2)cc1,2.073%
COc1ccc(C(=O)C2CCCN2)cc1 (stereo not given),41.15%
Cn1cnnc1CN1CCC(C2CCOCC2)CC1,-9.076%
Cn1ncc(C(=O)OC2CCOC2)c1-n1cccc1 (stereo not given),-4.955%
COc1cc(CNC(=O)C2CCCCN2)ccc1C (stereo not given),-2.962%
CN(Cc1ccc2cc(Cl)ccc2n1)CC(O)CO (stereo not given),18.62%
CC(C)N(C(=O)C1CCNCC1)C(C)C,-4.641%
CCOc1ccc(NC(=O)CN2CCNCC2)cc1,8.272%
CSc1nc(C)c2c(c1C(N)=O)CCCC2,-11.67%
CC(=O)Nc1ccc(N2C(=O)C=CC2=O)cc1,43.61%
O=C(C1CCNCC1)N1CCc2ccccc2C1,1.469%
Nc1nnc(SCc2cn3ccccc3n2)s1,-2.688%
OC[C@H]1CCCCN1CC(O)COCc1ccco1 (stereo not given in full),1.771%
CSCC(CCO)Nc1cc(C#N)c2ccccc2n1 (stereo not given),-5.918%
CCS(=O)(=O)CC(=O)Nc1cc(Cl)ccc1C,1.919%
CCCOc1cccc(NCC(=O)N2CCNC2=O)c1,-9.259%
Cc1ccc2c(c1)OC(C)CN2C(=O)c1ccccn1 (stereo not given),19.06%
N#CCCN1C(=O)c2cc(Cl)c(Cl)cc2C1=O,2.608%
CC(N)c1ccccc1-n1cccn1 (stereo not given),8.178%
NC(=O)CCNCCc1ccccc1,17.15%
O=C(CSc1ncn[nH]1)Nc1ncc(Br)s1,22.5%
CCOc1ccc(NC(=O)N2CCC(N)C2)cc1C#N (stereo not given),21.81%
CC(C)CC(=O)N1CCN(C(=O)N2CCCCC2)CC1,-1.065%
NCCNC(=O)c1ccccc1C(F)(F)F,-6.554%
CNc1ncc(C(=O)N2CCNCC(O)C2)cn1 (stereo not given),-20.42%
c1nnc(C2COCCN2)o1 (stereo not given),-14.62%
Cc1cc(C(=O)N2CCN(CC(C)O)CC2)on1 (stereo not given),-12.55%
Cn1nccc1CNS(=O)(=O)c1nccs1,-4.627%
CC(C)(N)CN1CCCN(c2ccc(F)cc2)CC1,66.46%
CC(Cc1cccs1)N(C)C(=O)CC1(N)CCC1 (stereo not given),3.828%
NCc1cccc(C(F)(F)F)n1,-19.54%
O=C(NCc1cc[nH]n1)N1CCc2sccc2C1,3.401%
CN(C)c1ncccc1N,-99.15%
CO[C@H]1CNCC1NS(=O)(=O)CCOC(C)C (stereo not given in full),5.931%
CC(=O)c1cccc(COC(=O)c2cccnc2)c1,99.72%
CN1CCN(C(=O)C2CC2)c2ccccc2C1,11.64%
COCC(N)c1cccc(Cl)c1 (stereo not given),13.52%
CN1C(=O)CCN(S(C)(=O)=O)c2ccccc21,-20.24%
CSCC(=O)NCCc1noc(C(F)(F)F)n1,6.314%
CN1CCCN(C[C@@H]2CN(S(C)(=O)=O)C[C@@H]2CO)CC1,-9.179%
CNC(=O)C(O)CNS(=O)(=O)c1ccc(C)cc1F (stereo not given),1.099%
N#Cc1ccc(NCCOc2ccccc2)nc1,60.82%
Oc1ccc(OCCN2CCOCC2)cc1,10.91%
CCCNC(=O)C(C)NC(=O)NCCc1cccs1 (stereo not given),-2.058%
CCCC(N)C(=O)N(CC)Cc1ccoc1 (stereo not given),-7.222%
CNCc1nncn1C,-1.485%
Cc1ncc(Br)cc1N,-19.14%
O=c1ccccn1CCCNS(=O)(=O)c1cccs1,-2.153%
CCc1nnc(NC(=O)c2cc(OC)ccn2)s1,-7.347%
CN(C)CCNC(=O)Cn1ccc(N)n1,-2.29%
CNc1cccc(S(C)(=O)=O)c1,0.4261%
COCC(=O)N1CCC(c2nc(CSC)no2)CC1,3.507%
CC(C)c1ccccc1OCC(O)CN(C)CCO (stereo not given),61.34%
CC(C)CCN1CCN(C(=O)c2nccnc2N)CC1,-11.24%

Some entries from above, unchanged:

compound	effect
CCS(=O)(=O)CC(=O)Nc1cc(Cl)ccc1C	1.919%
NCCNC(=O)c1ccccc1C(F)(F)F	-6.554%
CN1C(=O)CCN(S(C)(=O)=O)c2ccccc21	-20.24%
Cn1ncc(C(=O)OC2CCOC2)c1-n1cccc1 (stereo not given)	-4.955%
CC(Cc1cccs1)N(C)C(=O)CC1(N)CCC1 (stereo not given)	3.828%
N#Cc1ccc(NCCOc2ccccc2)nc1	60.82%